Publication PMC4980872
These are yes or no findings as the source states them, for the method shown. In cells and extracts the contact can be indirect. Some entries that bind do so weakly or less than the wild type.

The chains behind the UniProt entries cited, without tags or fusion partners.
UniProt O75376: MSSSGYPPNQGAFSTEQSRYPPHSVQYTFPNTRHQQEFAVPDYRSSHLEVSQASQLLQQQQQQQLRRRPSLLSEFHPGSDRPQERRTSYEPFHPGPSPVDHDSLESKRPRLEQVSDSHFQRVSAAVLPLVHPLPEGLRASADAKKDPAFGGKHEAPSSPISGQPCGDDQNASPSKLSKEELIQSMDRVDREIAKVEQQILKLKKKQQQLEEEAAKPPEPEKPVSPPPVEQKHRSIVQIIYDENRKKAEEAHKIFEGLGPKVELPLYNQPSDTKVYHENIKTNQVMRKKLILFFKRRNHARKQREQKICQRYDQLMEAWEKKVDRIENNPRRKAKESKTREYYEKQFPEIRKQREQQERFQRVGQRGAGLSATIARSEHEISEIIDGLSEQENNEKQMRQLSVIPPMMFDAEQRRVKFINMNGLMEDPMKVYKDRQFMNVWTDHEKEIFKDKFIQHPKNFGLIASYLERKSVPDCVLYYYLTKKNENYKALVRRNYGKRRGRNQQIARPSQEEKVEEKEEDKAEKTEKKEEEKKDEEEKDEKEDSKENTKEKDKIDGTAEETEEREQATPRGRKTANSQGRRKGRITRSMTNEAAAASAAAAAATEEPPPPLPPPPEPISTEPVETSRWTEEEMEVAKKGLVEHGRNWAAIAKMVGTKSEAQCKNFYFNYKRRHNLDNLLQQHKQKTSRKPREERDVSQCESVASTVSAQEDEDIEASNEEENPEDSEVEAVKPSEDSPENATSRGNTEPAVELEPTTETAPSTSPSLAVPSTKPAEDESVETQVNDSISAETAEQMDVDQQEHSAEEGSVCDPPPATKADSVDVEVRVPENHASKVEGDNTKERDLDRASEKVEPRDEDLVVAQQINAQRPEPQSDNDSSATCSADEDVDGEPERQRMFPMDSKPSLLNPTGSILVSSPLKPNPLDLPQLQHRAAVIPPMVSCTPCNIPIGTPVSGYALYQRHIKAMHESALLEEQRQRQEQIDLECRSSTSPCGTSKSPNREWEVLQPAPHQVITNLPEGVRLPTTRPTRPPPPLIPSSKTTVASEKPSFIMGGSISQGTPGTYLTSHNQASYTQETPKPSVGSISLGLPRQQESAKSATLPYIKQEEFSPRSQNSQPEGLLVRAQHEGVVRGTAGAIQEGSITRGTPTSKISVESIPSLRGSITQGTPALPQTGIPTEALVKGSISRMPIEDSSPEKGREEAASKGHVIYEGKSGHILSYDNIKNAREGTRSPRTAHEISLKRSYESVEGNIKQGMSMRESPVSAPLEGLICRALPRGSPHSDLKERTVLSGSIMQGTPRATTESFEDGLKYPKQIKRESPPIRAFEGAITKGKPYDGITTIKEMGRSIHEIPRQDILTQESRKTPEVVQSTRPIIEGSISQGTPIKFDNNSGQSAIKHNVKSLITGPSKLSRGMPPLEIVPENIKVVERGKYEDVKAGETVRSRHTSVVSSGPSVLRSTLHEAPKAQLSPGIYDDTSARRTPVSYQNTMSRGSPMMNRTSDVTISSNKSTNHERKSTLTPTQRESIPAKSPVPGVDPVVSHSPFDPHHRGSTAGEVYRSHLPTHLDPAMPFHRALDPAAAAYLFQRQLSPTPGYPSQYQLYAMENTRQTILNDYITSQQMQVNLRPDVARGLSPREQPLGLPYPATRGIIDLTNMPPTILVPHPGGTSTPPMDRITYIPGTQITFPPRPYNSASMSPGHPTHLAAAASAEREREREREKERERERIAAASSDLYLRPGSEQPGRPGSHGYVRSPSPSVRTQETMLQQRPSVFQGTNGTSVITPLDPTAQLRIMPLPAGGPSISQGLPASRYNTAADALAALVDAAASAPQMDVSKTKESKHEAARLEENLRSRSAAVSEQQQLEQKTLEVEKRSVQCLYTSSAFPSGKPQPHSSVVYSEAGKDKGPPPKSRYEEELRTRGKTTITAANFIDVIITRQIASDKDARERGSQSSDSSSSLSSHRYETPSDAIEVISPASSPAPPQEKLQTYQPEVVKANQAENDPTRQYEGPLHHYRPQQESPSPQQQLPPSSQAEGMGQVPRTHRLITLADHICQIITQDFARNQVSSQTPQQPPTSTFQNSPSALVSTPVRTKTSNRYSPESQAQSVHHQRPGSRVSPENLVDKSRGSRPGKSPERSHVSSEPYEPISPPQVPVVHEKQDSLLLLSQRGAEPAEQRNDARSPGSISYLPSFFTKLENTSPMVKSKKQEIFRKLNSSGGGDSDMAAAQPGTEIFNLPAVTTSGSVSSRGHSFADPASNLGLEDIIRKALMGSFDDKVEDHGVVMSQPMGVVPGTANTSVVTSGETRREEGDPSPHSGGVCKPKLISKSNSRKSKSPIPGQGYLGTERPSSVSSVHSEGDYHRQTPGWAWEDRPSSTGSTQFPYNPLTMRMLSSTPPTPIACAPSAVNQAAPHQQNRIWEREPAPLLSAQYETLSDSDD
UniProt Q9HCK8: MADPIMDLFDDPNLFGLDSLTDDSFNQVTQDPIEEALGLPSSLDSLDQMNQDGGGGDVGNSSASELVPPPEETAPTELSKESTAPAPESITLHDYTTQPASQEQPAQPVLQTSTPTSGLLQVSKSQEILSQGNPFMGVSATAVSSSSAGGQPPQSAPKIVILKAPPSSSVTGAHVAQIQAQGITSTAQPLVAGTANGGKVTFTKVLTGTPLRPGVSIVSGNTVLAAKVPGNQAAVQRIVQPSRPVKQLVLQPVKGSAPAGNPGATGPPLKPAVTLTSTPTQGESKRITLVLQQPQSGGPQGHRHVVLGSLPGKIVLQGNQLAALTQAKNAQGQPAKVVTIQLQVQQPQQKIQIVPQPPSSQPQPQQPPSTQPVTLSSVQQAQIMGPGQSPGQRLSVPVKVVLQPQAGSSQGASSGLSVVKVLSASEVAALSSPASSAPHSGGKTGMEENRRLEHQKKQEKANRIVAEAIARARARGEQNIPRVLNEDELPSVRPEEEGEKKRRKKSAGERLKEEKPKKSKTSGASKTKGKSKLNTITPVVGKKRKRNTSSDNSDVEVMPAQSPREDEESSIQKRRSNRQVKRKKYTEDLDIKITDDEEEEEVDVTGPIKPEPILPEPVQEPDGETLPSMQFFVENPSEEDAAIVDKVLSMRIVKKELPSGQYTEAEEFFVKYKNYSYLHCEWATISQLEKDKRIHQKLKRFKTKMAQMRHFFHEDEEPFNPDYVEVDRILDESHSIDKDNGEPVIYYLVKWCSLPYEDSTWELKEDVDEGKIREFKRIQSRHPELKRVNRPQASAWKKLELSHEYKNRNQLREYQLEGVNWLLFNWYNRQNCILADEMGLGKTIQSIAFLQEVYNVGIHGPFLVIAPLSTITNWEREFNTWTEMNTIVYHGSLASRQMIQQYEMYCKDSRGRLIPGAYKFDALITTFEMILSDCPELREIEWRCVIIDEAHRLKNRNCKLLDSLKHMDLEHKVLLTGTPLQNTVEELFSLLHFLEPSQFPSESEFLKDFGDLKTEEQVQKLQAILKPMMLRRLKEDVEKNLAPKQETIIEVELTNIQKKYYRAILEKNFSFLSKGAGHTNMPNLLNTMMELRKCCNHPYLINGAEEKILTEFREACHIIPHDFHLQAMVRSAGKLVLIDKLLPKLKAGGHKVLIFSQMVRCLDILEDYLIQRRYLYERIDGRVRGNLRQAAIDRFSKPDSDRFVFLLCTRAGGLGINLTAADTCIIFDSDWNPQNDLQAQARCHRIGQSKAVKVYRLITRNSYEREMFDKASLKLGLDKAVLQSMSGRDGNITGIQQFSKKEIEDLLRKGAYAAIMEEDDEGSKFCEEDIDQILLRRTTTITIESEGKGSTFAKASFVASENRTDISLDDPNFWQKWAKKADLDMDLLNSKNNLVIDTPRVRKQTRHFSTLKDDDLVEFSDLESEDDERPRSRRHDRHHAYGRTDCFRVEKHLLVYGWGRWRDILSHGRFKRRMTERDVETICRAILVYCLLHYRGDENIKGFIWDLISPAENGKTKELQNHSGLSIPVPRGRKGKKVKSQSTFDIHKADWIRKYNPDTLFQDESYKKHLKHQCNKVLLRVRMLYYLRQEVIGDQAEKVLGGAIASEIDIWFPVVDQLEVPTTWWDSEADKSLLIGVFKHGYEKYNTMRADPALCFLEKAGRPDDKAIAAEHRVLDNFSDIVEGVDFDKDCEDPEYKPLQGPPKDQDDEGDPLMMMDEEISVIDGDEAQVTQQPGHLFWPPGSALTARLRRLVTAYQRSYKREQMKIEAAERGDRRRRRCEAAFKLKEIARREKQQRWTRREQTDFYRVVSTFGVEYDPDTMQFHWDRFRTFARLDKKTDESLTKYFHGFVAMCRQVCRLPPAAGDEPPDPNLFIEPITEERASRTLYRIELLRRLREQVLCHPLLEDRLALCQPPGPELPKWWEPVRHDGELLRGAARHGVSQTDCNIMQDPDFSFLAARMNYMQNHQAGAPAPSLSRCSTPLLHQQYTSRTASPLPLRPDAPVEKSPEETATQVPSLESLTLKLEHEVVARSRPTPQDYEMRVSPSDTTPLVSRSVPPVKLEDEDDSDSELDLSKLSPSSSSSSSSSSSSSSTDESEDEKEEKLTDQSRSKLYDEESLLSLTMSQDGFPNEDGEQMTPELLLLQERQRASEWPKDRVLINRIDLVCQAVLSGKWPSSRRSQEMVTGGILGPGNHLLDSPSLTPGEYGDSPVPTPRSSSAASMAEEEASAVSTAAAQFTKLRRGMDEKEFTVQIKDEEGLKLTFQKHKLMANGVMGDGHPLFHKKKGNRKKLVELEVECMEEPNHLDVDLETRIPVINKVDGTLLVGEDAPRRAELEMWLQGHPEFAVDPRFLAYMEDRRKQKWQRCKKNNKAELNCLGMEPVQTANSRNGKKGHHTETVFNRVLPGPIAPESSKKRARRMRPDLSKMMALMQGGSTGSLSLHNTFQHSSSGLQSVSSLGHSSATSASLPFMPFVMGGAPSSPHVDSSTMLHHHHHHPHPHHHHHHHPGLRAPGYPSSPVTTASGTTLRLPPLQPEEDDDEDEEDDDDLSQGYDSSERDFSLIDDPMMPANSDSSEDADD

Molecular target: NCOR1 (nuclear receptor corepressor 1) (UniProt O75376)
Test: co-IP; co-immunoprecipitations in various CRC cell lines; bait and antibodies not stated

- binding: binds
Substance: CHD8 (Chromodomain helicase DNA binding 8) protein (from UniProt Q9HCK8 1-2581)
